In paper PMC10618106:

Biological target: FLAG-tagged CK2α (human), P68400
Assay: affinity purification with mass spectrometry; FLAG-CK2α expressed in HEK293; nuclear fractions of cells starved and restimulated with serum to early G1 (6 h) or late G1 (15-16 h); pre-cleared with normal IgG-agarose, anti-FLAG M2 agarose, eluted with FLAG peptide, trypsin, nano-LC MS/MS (Mascot)
Conditions: remark: other sources report otherwise

B1: Nucleolar transcription factor 1, P17480 1-764 (protein)
chain: MNGEADCPTDLEMAAPKGQDRWSQEDMLTLLECMKNNLPSNDSSKFKTTESHMDWEKVAFKDFSGDMCKLKWVEISNEVRKFRTLTELILDAQEHVKNPYKGKKLKKHPDFPKKPLTPYFRFFMEKRAKYAKLHPEMSNLDLTKILSKKYKELPEKKKMKYIQDFQREKQEFERNLARFREDHPDLIQNAKKSDIPEKPKTPQQLWYTHEKKVYLKVRPDATTKEVKDSLGKQWSQLSDKKRLKWIHKALEQRKEYEEIMRDYIQKHPELNISEEGITKSTLTKAERQLKDKFDGRPTKPPPNSYSLYCAELMANMKDVPSTERMVLCSQQWKLLSQKEKDAYHKKCDQKKKDYEVELLRFLESLPEEEQQRVLGEEKMLNINKKQATSPASKKPAQEGGKGGSEKPKRPVSAMFIFSEEKRRQLQEERPELSESELTRLLARMWNDLSEKKKAKYKAREAALKAQSERKPGGEREERGKLPESPKRAEEIWQQSVIGDYLARFKNDRVKALKAMEMTWNNMEKKEKLMWIKKAAEDQKRYERELSEMRAPPAATNSSKKMKFQGEPKKPPMNGYQKFSQELLSNGELNHLPLKERMVEIGSRWQRISQSQKEHYKKLAEEQQKQYKVHLDLWVKSLSPQDRAAYKEYISNKRKSMTKLRGPNPKSSRTTLQSKSESEEDDEEDEDDEDEDEEEEDDENGDSSEDGGDSSESSSEDESEDGDENEEDDEDEDDDEDDDEDEDNESEGSSSSSSSSGDSSDSDSN
Q: For B1, which binding is on record?
A: Its binding is “binds”.

Results are given in words; binding and its absence hold for the method and conditions named. In cells and extracts the contact can be indirect. A yes stands for co-enrichment or nearness to the bait. Other partners may have been found.
